Source: article PMC13082787
No constants are given. Whether binding was seen depends on the method and setting. Where a sequence is shown, tags or fusion partners need not be part of it.

The chains behind the UniProt entries cited, without tags or fusion partners. Residues count along the entry.
UniProt P02930, residues 23-493: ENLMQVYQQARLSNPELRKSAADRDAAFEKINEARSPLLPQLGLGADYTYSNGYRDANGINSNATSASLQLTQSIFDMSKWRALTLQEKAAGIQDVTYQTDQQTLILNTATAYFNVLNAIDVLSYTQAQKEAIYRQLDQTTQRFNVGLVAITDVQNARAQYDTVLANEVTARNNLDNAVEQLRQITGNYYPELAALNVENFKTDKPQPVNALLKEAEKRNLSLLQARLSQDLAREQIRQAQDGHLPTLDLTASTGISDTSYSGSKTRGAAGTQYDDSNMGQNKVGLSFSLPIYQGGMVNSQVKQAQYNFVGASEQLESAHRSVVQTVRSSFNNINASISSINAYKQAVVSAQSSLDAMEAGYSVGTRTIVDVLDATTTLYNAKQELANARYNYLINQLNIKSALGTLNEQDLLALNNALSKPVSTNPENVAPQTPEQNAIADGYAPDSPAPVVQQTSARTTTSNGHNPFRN

Target: T1, Soluble LolB, N-terminally His-tagged (E. coli) (UniProt P61320)
T1 sequence: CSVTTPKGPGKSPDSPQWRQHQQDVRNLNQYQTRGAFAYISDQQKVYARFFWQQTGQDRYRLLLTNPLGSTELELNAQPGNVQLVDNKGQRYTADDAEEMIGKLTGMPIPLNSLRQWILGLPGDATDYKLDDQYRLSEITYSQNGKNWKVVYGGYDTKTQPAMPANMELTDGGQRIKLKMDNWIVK
Assay: pull-down; TolC-FLAG mixed with N-terminally His-tagged YbjPs or LolBs, each 15 µM, then bound to Ni resin; 50 mM Tris pH 7.5, 200 mM NaCl, 0.03% β-DDM; four washes, elution with 250 mM imidazole, SDS-PAGE; both purified

Detergent-purified FLAG-tagged TolC (from UniProt P02930 23-493)
binding: no binding (tested: 15 µM)
